Results as given in PMC10501626.
No constants are given. Whether binding was seen depends on the method and setting. Binding seen in cells or lysates may run through a third protein. Some binding calls cover weakened binding; strength is not graded here.

Protein sequences, listed by entry. Tags and fused reporters are not part of them.
UniProt Q9UPY3: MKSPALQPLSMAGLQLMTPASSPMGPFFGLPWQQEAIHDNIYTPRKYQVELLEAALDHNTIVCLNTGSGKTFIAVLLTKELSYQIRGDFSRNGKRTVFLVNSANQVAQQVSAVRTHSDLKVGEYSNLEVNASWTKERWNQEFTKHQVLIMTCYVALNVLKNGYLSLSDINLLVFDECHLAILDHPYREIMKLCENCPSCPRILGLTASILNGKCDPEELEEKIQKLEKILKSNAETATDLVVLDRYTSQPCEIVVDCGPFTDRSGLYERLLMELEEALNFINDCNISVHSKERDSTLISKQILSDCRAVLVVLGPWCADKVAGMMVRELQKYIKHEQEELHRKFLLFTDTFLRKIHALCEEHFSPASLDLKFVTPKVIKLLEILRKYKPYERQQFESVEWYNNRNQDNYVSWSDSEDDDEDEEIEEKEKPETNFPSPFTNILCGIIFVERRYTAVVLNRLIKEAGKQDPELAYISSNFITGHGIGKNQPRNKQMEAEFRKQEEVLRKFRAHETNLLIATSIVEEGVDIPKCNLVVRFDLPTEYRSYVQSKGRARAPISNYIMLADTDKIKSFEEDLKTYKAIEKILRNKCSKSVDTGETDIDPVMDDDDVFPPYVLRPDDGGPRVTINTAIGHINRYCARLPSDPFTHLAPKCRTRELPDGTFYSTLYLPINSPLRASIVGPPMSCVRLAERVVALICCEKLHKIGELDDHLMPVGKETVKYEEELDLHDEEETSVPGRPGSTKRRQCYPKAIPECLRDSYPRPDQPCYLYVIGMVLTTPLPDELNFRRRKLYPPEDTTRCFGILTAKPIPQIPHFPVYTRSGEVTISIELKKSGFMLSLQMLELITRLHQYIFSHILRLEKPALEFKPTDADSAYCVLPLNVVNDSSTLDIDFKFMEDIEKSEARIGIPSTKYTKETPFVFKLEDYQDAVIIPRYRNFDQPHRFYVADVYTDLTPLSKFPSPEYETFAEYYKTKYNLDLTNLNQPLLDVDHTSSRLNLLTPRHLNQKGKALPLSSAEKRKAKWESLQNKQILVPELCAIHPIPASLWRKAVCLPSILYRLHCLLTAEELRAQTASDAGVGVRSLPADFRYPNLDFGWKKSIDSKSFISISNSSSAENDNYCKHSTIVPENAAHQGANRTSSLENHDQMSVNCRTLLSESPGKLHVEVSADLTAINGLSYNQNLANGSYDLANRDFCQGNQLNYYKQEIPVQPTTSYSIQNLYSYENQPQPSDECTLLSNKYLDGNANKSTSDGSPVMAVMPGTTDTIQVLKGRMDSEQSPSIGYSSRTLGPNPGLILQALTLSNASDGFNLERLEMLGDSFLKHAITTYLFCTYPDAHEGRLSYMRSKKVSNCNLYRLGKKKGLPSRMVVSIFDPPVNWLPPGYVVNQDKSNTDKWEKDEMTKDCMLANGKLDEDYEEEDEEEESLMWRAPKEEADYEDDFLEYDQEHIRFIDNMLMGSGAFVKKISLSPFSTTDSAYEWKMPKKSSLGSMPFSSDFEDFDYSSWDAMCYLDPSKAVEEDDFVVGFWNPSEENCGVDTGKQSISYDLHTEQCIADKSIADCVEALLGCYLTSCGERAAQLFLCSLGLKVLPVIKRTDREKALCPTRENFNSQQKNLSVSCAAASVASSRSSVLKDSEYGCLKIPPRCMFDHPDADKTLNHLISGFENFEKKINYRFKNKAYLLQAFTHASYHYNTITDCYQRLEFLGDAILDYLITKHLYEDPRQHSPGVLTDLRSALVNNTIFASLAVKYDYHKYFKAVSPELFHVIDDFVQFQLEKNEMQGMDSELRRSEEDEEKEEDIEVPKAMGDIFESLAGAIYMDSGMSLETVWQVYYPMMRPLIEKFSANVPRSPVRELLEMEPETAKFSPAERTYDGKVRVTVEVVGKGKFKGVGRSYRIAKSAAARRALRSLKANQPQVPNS

Molecular target: T1, LGP2 (laboratory genetics and physiology 2), wild type, expressed from pCAGGS in 293T cells (human) (UniProt Q96C10)
T1 sequence: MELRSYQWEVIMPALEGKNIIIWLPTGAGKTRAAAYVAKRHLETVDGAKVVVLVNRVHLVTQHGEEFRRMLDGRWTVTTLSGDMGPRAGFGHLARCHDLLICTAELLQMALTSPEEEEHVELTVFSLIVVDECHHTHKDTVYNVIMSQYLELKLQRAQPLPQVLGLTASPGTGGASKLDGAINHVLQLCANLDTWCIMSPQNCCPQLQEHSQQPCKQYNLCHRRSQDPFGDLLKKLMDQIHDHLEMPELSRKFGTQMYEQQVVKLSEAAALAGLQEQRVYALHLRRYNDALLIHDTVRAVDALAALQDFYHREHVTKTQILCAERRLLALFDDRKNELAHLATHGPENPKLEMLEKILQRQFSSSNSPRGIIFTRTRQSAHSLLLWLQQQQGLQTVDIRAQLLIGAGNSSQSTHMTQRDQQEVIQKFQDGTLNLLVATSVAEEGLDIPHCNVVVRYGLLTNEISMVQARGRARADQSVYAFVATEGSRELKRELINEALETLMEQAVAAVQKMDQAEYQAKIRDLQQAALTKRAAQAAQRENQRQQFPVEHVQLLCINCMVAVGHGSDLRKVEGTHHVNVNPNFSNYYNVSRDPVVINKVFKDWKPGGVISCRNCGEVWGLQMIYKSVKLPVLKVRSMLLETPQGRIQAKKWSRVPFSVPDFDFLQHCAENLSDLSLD
Assay: co-IP

With Dicer (from UniProt Q9UPY3 1-1922) the binding was “binds”.
